According to ChEMBL document CHEMBL4316593 (Eur J Med Chem, 2019):
This continues a long series; more values of the same kind are listed elsewhere.

Experiments:
Assay type in all cases: cell-based
Conditions in all cases: U-87MG ATCC
[1] = Inhibition of RTK/PI3K/AKT/mTOR signaling in human U87 cells assessed as down regulation of HAPLN3 gene expression at cytotoxic IC50 measured after 48 hrs relative to control
[2] = Inhibition of RTK/PI3K/AKT/mTOR signaling in human U87 cells assessed as down regulation of LIN52 gene expression at cytotoxic IC50 measured after 48 hrs relative to control
[3] = Inhibition of RTK/PI3K/AKT/mTOR signaling in human U87 cells assessed as down regulation of TFIP11 gene expression at cytotoxic IC50 measured after 48 hrs relative to control
[4] = Inhibition of RTK/PI3K/AKT/mTOR signaling in human U87 cells assessed as down regulation of PLEC gene expression at cytotoxic IC50 measured after 48 hrs relative to control
[5] = Inhibition of RTK/PI3K/AKT/mTOR signaling in human U87 cells assessed as up regulation of CDC42 effector protein 3 gene expression at cytotoxic IC50 measured after 48 hrs relative to control
[6] = Inhibition of RTK/PI3K/AKT/mTOR signaling in human U87 cells assessed as up regulation of HILPDA gene expression at cytotoxic IC50 measured after 48 hrs relative to control
[7] = Inhibition of RTK/PI3K/AKT/mTOR signaling in human U87 cells assessed as up regulation of solute carrier family 12 member 8 gene expression at cytotoxic IC50 measured after 48 hrs relative to control
[8] = Inhibition of RTK/PI3K/AKT/mTOR signaling in human U87 cells assessed as up regulation of sodium voltage-gated channel alpha subunit 5 gene expression at cytotoxic IC50 measured after 48 hrs relative to control
[9] = Inhibition of RTK/PI3K/AKT/mTOR signaling in human U87 cells assessed as down regulation of DIAPH1 gene expression at cytotoxic IC50 measured after 48 hrs relative to control
[10] = Inhibition of RTK/PI3K/AKT/mTOR signaling in human U87 cells assessed as down regulation of NPLOC4 gene expression at cytotoxic IC50 measured after 48 hrs relative to control
[11] = Inhibition of RTK/PI3K/AKT/mTOR signaling in human U87 cells assessed as down regulation of CDK11B gene expression at cytotoxic IC50 measured after 48 hrs relative to control
[12] = Inhibition of RTK/PI3K/AKT/mTOR signaling in human U87 cells assessed as up regulation of transforming growth factor alpha gene expression at cytotoxic IC50 measured after 48 hrs relative to control
[13] = Inhibition of RTK/PI3K/AKT/mTOR signaling in human U87 cells assessed as down regulation of UFL1 gene expression at cytotoxic IC50 measured after 48 hrs relative to control
[14] = Inhibition of RTK/PI3K/AKT/mTOR signaling in human U87 cells assessed as down regulation of TRIM21 gene expression at cytotoxic IC50 measured after 48 hrs relative to control
[15] = Inhibition of RTK/PI3K/AKT/mTOR signaling in human U87 cells assessed as up regulation of LTBP3 gene expression at cytotoxic IC50 measured after 48 hrs relative to control
[16] = Inhibition of RTK/PI3K/AKT/mTOR signaling in human U87 cells assessed as up regulation of peptidyl arginine deiminase 2 gene expression at cytotoxic IC50 measured after 48 hrs relative to control
[17] = Inhibition of RTK/PI3K/AKT/mTOR signaling in human U87 cells assessed as down regulation of SGK1 gene expression at cytotoxic IC50 measured after 48 hrs relative to control
[18] = Inhibition of RTK/PI3K/AKT/mTOR signaling in human U87 cells assessed as down regulation of RBM25 gene expression at cytotoxic IC50 measured after 48 hrs relative to control
[19] = Inhibition of RTK/PI3K/AKT/mTOR signaling in human U87 cells assessed as down regulation of RFC2 gene expression at cytotoxic IC50 measured after 48 hrs relative to control
[20] = Inhibition of RTK/PI3K/AKT/mTOR signaling in human U87 cells assessed as up regulation of glucosidase II alpha subunit gene expression at cytotoxic IC50 measured after 48 hrs relative to control
[21] = Inhibition of RTK/PI3K/AKT/mTOR signaling in human U87 cells assessed as up regulation of SLC35E1 gene expression at cytotoxic IC50 measured after 48 hrs relative to control
[22] = Inhibition of RTK/PI3K/AKT/mTOR signaling in human U87 cells assessed as up regulation of DFFA gene expression at cytotoxic IC50 measured after 48 hrs relative to control
[23] = Inhibition of RTK/PI3K/AKT/mTOR signaling in human U87 cells assessed as down regulation of PBK gene expression at cytotoxic IC50 measured after 48 hrs relative to control
[24] = Inhibition of RTK/PI3K/AKT/mTOR signaling in human U87 cells assessed as down regulation of TRMT112 gene expression at cytotoxic IC50 measured after 48 hrs relative to control
[25] = Inhibition of RTK/PI3K/AKT/mTOR signaling in human U87 cells assessed as down regulation of METTL14 gene expression at cytotoxic IC50 measured after 48 hrs relative to control
[26] = Inhibition of RTK/PI3K/AKT/mTOR signaling in human U87 cells assessed as down regulation of C10orf35 gene expression at cytotoxic IC50 measured after 48 hrs relative to control
[27] = Inhibition of RTK/PI3K/AKT/mTOR signaling in human U87 cells assessed as down regulation of SON gene expression at cytotoxic IC50 measured after 48 hrs relative to control
[28] = Inhibition of RTK/PI3K/AKT/mTOR signaling in human U87 cells assessed as down regulation of NATD1 gene expression at cytotoxic IC50 measured after 48 hrs relative to control
[29] = Inhibition of RTK/PI3K/AKT/mTOR signaling in human U87 cells assessed as up regulation of MN1 gene expression at cytotoxic IC50 measured after 48 hrs relative to control
[30] = Inhibition of RTK/PI3K/AKT/mTOR signaling in human U87 cells assessed as down regulation of DNAJB2 gene expression at cytotoxic IC50 measured after 48 hrs relative to control
[31] = Inhibition of RTK/PI3K/AKT/mTOR signaling in human U87 cells assessed as down regulation of SKA1 gene expression at cytotoxic IC50 measured after 48 hrs relative to control
[32] = Inhibition of RTK/PI3K/AKT/mTOR signaling in human U87 cells assessed as up regulation of MAFG-AS1 gene expression at cytotoxic IC50 measured after 48 hrs relative to control

CC(=O)C(=NNc1ccccc1C#N)C(C)=O
log2FC [1]: -1.09 | log2FC [2]: -1.04 | log2FC [3]: -0.862 | log2FC [4]: -0.487 | log2FC [5]: 0.838 | log2FC [6]: 1.8 | log2FC [7]: 1.24 | log2FC [8]: 1.54 | log2FC [9]: -0.364 | log2FC [10]: -0.516 | log2FC [11]: -0.922 | log2FC [12]: 0.865 | log2FC [13]: -0.866 | log2FC [14]: -1.02 | log2FC [15]: 1.58 | log2FC [16]: 1.38 | log2FC [17]: -2.13 | log2FC [18]: -0.513 | log2FC [19]: -1.11 | log2FC [20]: 0.956 | log2FC [21]: 0.62 | log2FC [22]: 0.54 | log2FC [23]: -0.849 | log2FC [24]: -0.609 | log2FC [25]: -0.686 | log2FC [26]: -1.05 | log2FC [27]: -0.43 | log2FC [28]: -1.76 | log2FC [29]: 2.09 | log2FC [30]: -1.03 | log2FC [31]: -1.49 | log2FC [32]: 1.86
